Reference: publication PMC3486646
Results are given in words; binding and its absence hold for the method and conditions named. In cells and extracts the contact can be indirect. Some results given as binding are weak or reduced against the parent protein; the word gives no strength.

B1: Upf3b (protein, UniProt Q9BZI7 1-483)
chain: MKEEKEHRPKEKRVTLLTPAGATGSGGGTSGDSSKGEDKQDRNKEKKEALSKVVIRRLPPTLTKEQLQEHLQPMPEHDYFEFFSNDTSLYPHMYARAYINFKNQEDIILFRDRFDGYVFLDNKGQEYPAIVEFAPFQKAAKKKTKKRDTKVGTIDDDPEYRKFLESYATDNEKMTSTPETLLEEIEAKNRELIAKKTTPLLSFLKNKQRMREEKREERRRREIERKRQREEERRKWKEEEKRKRKDIEKLKKIDRIPERDKLKDEPKIKVHRFLLQAVNQKNLLKKPEKGDEKELDKREKAKKLDKENLSDERASGQSCTLPKRSDSELKDEKPKRPEDESGRDYREREREYERDQERILRERERLKRQEEERRRQKERYEKEKTFKRKEEEMKKEKDTLRDKGKKAESTESIGSSEKTEKKEEVVKRDRIRNKDRPAMQLYQPGARSRNRLCPPDDSTKSGDSAAERKQESGISHRKEGGEE
B2: Staufen1 (in the HeLa lysates used for immunoprecipitation), O95793 1-577 (protein)
chain: MSQVQVQVQNPSAALSGSQILNKNQSLLSQPLMSIPSTTSSLPSENAGRPIQNSALPSASITSTSAAAESITPTVELNALCMKLGKKPMYKPVDPYSRMQSTYNYNMRGGAYPPRYFYPFPVPPLLYQVELSVGGQQFNGKGKTRQAAKHDAAAKALRILQNEPLPERLEVNGRESEEENLNKSEISQVFEIALKRNLPVNFEVARESGPPHMKNFVTKVSVGEFVGEGEGKSKKISKKNAAIAVLEELKKLPPLPAVERVKPRIKKKTKPIVKPQTSPEYGQGINPISRLAQIQQAKKEKEPEYTLLTERGLPRRREFVMQVKVGNHTAEGTGTNKKVAKRNAAENMLEILGFKVPQAQPTKPALKSEEKTPIKKPGDGRKVTFFEPGSGDENGTSNKEDEFRMPYLSHQQLPAGILPMVPEVAQAVGVSQGHHTKDFTRAAPNPAKATVTAMIARELLYGGTSPTAETILKNNISSGHVPHGPLTRPSEQLDYLSRVQGFQVEYKDFPKNNKNEFVSLINCSSQPPLISHGIGKDVESCHDMAALNILKLLSELDQQSTEMPRTGNGPMSVCGRC
B3: Upf1 (Up-frameshift protein 1) (protein, UniProt Q92900 1-1129)
chain: MSVEAYGPSSQTLTFLDTEEAELLGADTQGSEFEFTDFTLPSQTQTPPGGPGGPGGGGAGGPGGAGAGAAAGQLDAQVGPEGILQNGAVDDSVAKTSQLLAELNFEEDEEDTYYTKDLPIHACSYCGIHDPACVVYCNTSKKWFCNGRGNTSGSHIVNHLVRAKCKEVTLHKDGPLGETVLECYNCGCRNVFLLGFIPAKADSVVVLLCRQPCASQSSLKDINWDSSQWQPLIQDRCFLSWLVKIPSEQEQLRARQITAQQINKLEELWKENPSATLEDLEKPGVDEEPQHVLLRYEDAYQYQNIFGPLVKLEADYDKKLKESQTQDNITVRWDLGLNKKRIAYFTLPKTDSGNEDLVIIWLRDMRLMQGDEICLRYKGDLAPLWKGIGHVIKVPDNYGDEIAIELRSSVGAPVEVTHNFQVDFVWKSTSFDRMQSALKTFAVDETSVSGYIYHKLLGHEVEDVIIKCQLPKRFTAQGLPDLNHSQVYAVKTVLQRPLSLIQGPPGTGKTVTSATIVYHLARQGNGPVLVCAPSNIAVDQLTEKIHQTGLKVVRLCAKSREAIDSPVSFLALHNQIRNMDSMPELQKLQQLKDETGELSSADEKRYRALKRTAERELLMNADVICCTCVGAGDPRLAKMQFRSILIDESTQATEPECMVPVVLGAKQLILVGDHCQLGPVVMCKKAAKAGLSQSLFERLVVLGIRPIRLQVQYRMHPALSAFPSNIFYEGSLQNGVTAADRVKKGFDFQWPQPDKPMFFYVTQGQEEIASSGTSYLNRTEAANVEKITTKLLKAGAKPDQIGIITPYEGQRSYLVQYMQFSGSLHTKLYQEVEIASVDAFQGREKDFIILSCVRANEHQGIGFLNDPRRLNVALTRARYGVIIVGNPKALSKQPLWNHLLNYYKEQKVLVEGPLNNLRESLMQFSKPRKLVNTINPGARFMTTAMYDAREAIIPGSVYDRSSQGRPSSMYFQTHDQIGMISAGPSHVAAMNIPIPFNLVMPPMPPPGYFGQANGPAAGRGTPKGKTGRGGRQKNRFGLPGPSQTNLPNSQASQDVASQPFSQGALTQGYISMSQPSQMSQPGLSQPELSQDSYLGDEFKSQIDVALSQDSTYQGERAYQHGGVTGLSQY

Columns and labels:
[1] = target: Staufen1-TAP (UniProt O95793); test: pull-down; tandem affinity purification of Staufen1-TAP (IgG Sepharose, TEV cleavage, Calmodulin-affinity resin, EGTA elution) from lysates of stable 293T or Jurkat T cells, without or with HIV-1 (pNL4-3); eluates western blotted
[2] = target: IMP1-VenusC, Q9NZI8; test: co-IP; CRM1, ABCE1, TDP-43, AUF1 or IMP1-VenusC (anti-GFP) immunoprecipitated from HeLa cell lysates; equal amounts of lysates treated with or without RnaseA for 30 min on ice before IP; details: remark: other sources report otherwise

Row | Binder | binding [1] | binding [2]
1 | B1 | binds | –
2 | B2 | – | binds
3 | B3 | binds | –
